These are yes or no findings as the source states them, for the method shown. In cells and extracts the contact can be indirect. Some binding calls cover weakened binding; strength is not graded here.
Biological target: GFP-tagged CaMKIIγ (Calcium/Calmodulin-dependent Protein Kinase II gamma) (UniProt Q13555)
Test: co-IP; HEK293T cells co-transfected with myc-Pak1 and GFP-CaMKII; lysis in PBSCM buffer (100 mM Na2PO4, 150 mM NaCl, pH 7.2, 1 mM CaCl2, 1 mM MgCl2, 5 µM ATP); IP with anti-GFP (reciprocal: anti-myc) for 4 h at 4°C, Protein G Sepharose; immunoblot

Chains of the proteins cited; added tags and fusions are not shown.
UniProt Q13555: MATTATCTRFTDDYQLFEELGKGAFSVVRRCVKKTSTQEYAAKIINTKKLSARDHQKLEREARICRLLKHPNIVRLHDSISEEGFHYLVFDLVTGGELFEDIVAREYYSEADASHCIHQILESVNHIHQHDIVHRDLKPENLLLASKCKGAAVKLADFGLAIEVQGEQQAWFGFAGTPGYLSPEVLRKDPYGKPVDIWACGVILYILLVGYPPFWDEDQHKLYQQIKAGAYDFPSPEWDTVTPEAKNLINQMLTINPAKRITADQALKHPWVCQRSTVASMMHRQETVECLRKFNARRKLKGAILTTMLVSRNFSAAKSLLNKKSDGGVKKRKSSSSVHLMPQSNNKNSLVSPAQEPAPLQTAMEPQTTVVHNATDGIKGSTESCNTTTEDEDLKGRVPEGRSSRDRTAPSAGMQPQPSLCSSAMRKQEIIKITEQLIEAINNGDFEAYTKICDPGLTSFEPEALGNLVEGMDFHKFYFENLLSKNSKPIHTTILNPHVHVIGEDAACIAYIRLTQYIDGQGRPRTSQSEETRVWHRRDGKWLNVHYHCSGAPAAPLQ
UniProt Q13153: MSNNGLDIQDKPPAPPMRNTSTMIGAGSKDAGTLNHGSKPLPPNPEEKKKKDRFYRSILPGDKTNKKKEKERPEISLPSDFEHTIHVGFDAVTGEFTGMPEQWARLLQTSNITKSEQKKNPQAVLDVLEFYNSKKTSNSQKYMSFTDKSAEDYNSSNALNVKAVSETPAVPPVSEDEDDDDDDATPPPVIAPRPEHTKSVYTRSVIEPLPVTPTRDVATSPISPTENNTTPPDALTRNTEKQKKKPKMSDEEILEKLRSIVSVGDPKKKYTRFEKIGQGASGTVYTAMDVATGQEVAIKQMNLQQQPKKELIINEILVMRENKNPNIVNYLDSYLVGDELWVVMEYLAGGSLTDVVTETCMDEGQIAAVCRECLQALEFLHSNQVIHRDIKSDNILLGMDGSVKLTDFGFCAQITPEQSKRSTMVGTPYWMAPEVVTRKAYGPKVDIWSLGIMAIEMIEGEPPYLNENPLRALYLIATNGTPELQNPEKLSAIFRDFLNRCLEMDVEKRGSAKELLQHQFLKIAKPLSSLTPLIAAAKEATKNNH

binding: binds
Substance: myc-tagged Pak1 (p21-activated kinase 1) (from UniProt Q13153 1-545)

— article PMC8802317
